Some of the results follow. These are further read-outs of the screen, such as a control signal, another cell line or another target. No call is given for them. The list favours compounds with an active or inconclusive main result. The note in brackets gives the kind of curve behind each potency; many fits are weak.

This test in a line: qHTS Assay to Find Inhibitors of Chronic Active B-Cell Receptor Signaling. The settings on record: ABC-DLBCL IkBa-CBG/CBR reporter, luminescence ratio (green luciferase fused to IkBa over red control in TMD8 lymphoma cells), 4 h. The method in brief:
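TMD8 human ABC-DLBCL cells with doxycycline-inducible IκBα–green luciferase fusion and unfused red luciferase, in 0.5% FBS medium; compounds up to 46 uM, 4 h at 37C. Green/red luminescence ratio, filter-overlap corrected, fitted to concentration-response curves.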

The mark [1] stands for this setting: measured here: CBR red luminescence, cell number.
Setting [2] is: measured here: IkBa-CBG green luminescence.

On to `CCN(CC)S(=O)(=O)c1cccc(NC(=O)CCNC(=O)c2ccc([N+](=O)[O-])cc2)c1`, for which the AC50 (in general, the midpoint of the concentration-response curve, whichever way the signal moves) under setting [1] was 5.62 µM [rising, single point].

Consider `CCN(CC)C(=O)CSc1nnc(-n2nc(C)cc2C)c2ccccc12`, for which, under setting [1], the AC50 is 17.8 µM [falling, single point].

Take `O=C(O)Cn1c(O)c(C2=c3ccccc3=NC2=O)sc1=O`: the half-maximal activity concentration (AC50) under setting [1] is 15.8 µM [falling, partial curve, poor fit].

Take `CCN(CCCNC(=O)c1[nH]c(C)c(C(C)=O)c1C)c1ccccc1`: the concentration at half-maximal activity (AC50) under setting [1] was 1.03 µM [rising, partial curve].

With `Cc1cc(NN)nc(NS(=O)(=O)c2ccccc2)n1`, the AC50 under setting [1] is 10 µM [falling, partial curve, poor fit].

For the molecule `O=C(/C=C/c1ccc(O)cc1)c1ccc(NC2=C(N3CCCCC3)C(=O)c3ccccc3C2=O)cc1`, the AC50 under setting [1] was 35.5 µM [falling, single point].

Take `CCOC(=O)c1c(C)c(C(=O)OCC)n(C)c1C`: the AC50 reads like this: under setting [1], 2.24 µM [rising, full curve]; under setting [2], 10 µM [falling, partial curve].

For `COCCNC(=S)N1CCc2cc(OC)c(OC)cc2C1c1cccs1` (stereo not drawn), the concentration at half-maximal activity (AC50) under setting [1] is 35.5 µM [falling, single point].

As for `CC(=O)NC(CC(=O)Nc1ccc(S(=O)(=O)N2CCCCC2)cc1)c1ccccc1` (stereo not drawn), the concentration at half-maximal activity (AC50) under setting [1] is 18.4 µM [rising, partial curve, poor fit].

For the molecule `COC(=O)c1n[nH]n(-c2ccc(F)c(Cl)c2)c1=O`, under setting [1], the half-maximal activity concentration (AC50) was 12.6 µM [falling, partial curve].

For `O=C(CCl)N1CCN(S(=O)(=O)c2ccc3c(c2)OCCCO3)CC1`, under setting [1], the concentration at half-maximal activity (AC50) was 23.1 µM [falling, single point].

For the molecule `O=C(Cn1nnc(-c2ccc3c(c2)OCO3)n1)Nc1ccccc1C(=O)O`, under setting [1], the AC50 is 3.98 µM [rising, partial curve, poor fit].

Turning to `OC(COc1c(Br)cc(Br)cc1Br)CN1CCOCC1` (stereo not drawn), the half-maximal activity concentration (AC50) under setting [1] was 20 µM [falling, single point].

As for `CCCCCn1c(N)c(-c2nc3ccccc3o2)c2c([N+](=O)[O-])nn(CC)c(=O)c21`, the AC50 under setting [1] is 0.291 µM [rising, full curve, poor fit].

Consider `O=S(=O)(c1ccc(S(=O)(=O)N2CCC3(CC2)OCCO3)cc1)N1CCCC1`, for which the AC50 under setting [1] was 2.82 µM [rising, partial curve, poor fit].

For the molecule `CCc1ccc(/C=N/NC(=O)c2cc(C3CC3)nc3ccccc23)s1`, the AC50 is 2.31 µM [rising, partial curve, poor fit] under setting [1] and 4.61 µM [falling, partial curve] under setting [2].

As to `C[C@H](NC(=O)[C@@H]1Cc2ccccc2CN1)C(=O)NC1CCCCC1`, the half-maximal activity concentration (AC50) under setting [1] is 20 µM [falling, single point].

Regarding `CCS(=O)(=O)Nc1cccc(-c2ccc3nnc(C)n3n2)c1`, under setting [2], the AC50 is 15.8 µM [falling, partial curve, poor fit].

Consider `O=S(=O)(Cc1cnc(Cl)s1)c1ccccc1`, for which the AC50 under setting [1] is 16.4 µM [rising, single point].

Turning to `O=C(CCN1C(=O)c2ccccc2S1(=O)=O)Nc1ccccc1O`, the concentration at half-maximal activity (AC50) under setting [1] is 4.11 µM [falling, full curve].

On to `Cn1c(-c2c(N)n(CCCc3ccccc3)c3nc4ccccc4nc23)nc2ccccc21`, for which the AC50 under setting [1] was 5.62 µM [falling, partial curve, poor fit].

Regarding `N#C/C(=C\c1ccc(Cl)cc1)c1nc2ccccc2o1`, the AC50 under setting [2] is 29.1 µM [falling, partial curve, poor fit].

Regarding `Cc1ccc(NC(=O)C(=O)NC2CCCCC2)cc1`, the half-maximal activity concentration (AC50) under setting [1] is 0.0259 µM [falling, full curve].

`O=C(N/N=C/c1ccncc1)c1nc(-c2ccccc2)n2c1CCCCC2`: the half-maximal activity concentration (AC50) under setting [1] is 1.41 µM [rising, partial curve, poor fit].

In the case of `COC(=O)c1ccc(CSc2nc3c(c(=O)n2-c2ccc(C)cc2)SCC3)o1`, the AC50 under setting [1] is 3.26 µM [rising, full curve].

In the case of `CCOC(=O)C1=NOC2C(=O)N(c3ccc(Cl)cc3Cl)C(=O)C12` (stereo not drawn), the half-maximal activity concentration (AC50) under setting [1] is 14.1 µM [falling, single point].

For the molecule `NC(=O)C1(N2CCCCC2)CCN(C(=O)Nc2ccccc2C(F)(F)F)CC1`, under setting [1], the half-maximal activity concentration (AC50) is 6.51 µM [falling, partial curve, poor fit].

Take `Cc1cc(C)cc(NC(=O)Cn2nnc(-c3ccccc3F)n2)c1`: the AC50 under setting [1] was 7.08 µM [rising, partial curve].

As to `COc1cccc(NC(=O)Nc2ccc(Cc3ccncc3)cc2)c1`, the AC50 under setting [1] is 29.1 µM [falling, single point].

With `C/C(=N\NS(=O)(=O)c1ccc(Cl)cc1)c1ccc(NC(=O)c2ccco2)cc1`, under setting [1], the half-maximal activity concentration (AC50) is 20.6 µM [falling, single point].

In the case of `CSc1ncccc1C(=O)OCc1ccc([N+](=O)[O-])cc1`, the concentration at half-maximal activity (AC50) under setting [1] is 14.1 µM [rising, single point].

Take `CCCCN1Cc2cc(C(=O)c3cc(F)ccc3O)cnc2NC1=O`: the half-maximal activity concentration (AC50) under setting [1] is 35.5 µM [falling, single point].

Take `COc1ccc(NC(=O)Nc2cccc3ccccc23)cc1OC`: under setting [1], the AC50 is 0.355 µM [falling, full curve].

Regarding `Cc1ccc(CNC(=O)c2cn(C3CCCCC3)c(=O)c3c2c2ccccc2n3C)o1`, under setting [1], the AC50 is 2.59 µM [rising, single point].

Consider `O=C1C(Cl)=C(N2CCC(C(=O)O)CC2)C(=O)c2ccccc21`, for which the AC50 under setting [1] is 8.91 µM [falling, partial curve, poor fit].

Take `COc1cccc(-c2cc(N3C(=O)Nc4ccccc4N3O)n[nH]2)c1`: the half-maximal activity concentration (AC50) under setting [1] is 18.4 µM [falling, single point].

For the molecule `CC[N+](C)(C)CCN(Cc1ccc(Cl)cc1)c1ccccn1`, under setting [1], the AC50 is 29.1 µM [falling, single point].

`COc1cc(/C=N/N2C(=O)c3ccccc3NC2(C)c2cccc([N+](=O)[O-])c2)cc(Br)c1O` (stereo not drawn): the AC50 under setting [1] was 35.5 µM [falling, single point].

Take `CCn1c(=O)c(C(=O)CN2c3ccccc3CC2C)c(N)n(Cc2ccccc2)c1=O` (stereo not drawn): the concentration at half-maximal activity (AC50) under setting [1] is 29.1 µM [falling, single point].

Consider `COc1ccccc1NS(=O)(=O)c1ccc(-c2cnc(C3CC3)o2)cc1`, for which the AC50 is 7.94 µM [rising, partial curve, poor fit] under setting [1] and 11.2 µM [falling, partial curve] under setting [2].
